# Measurements taken from the supplement of paper PMC3334620.
# Over roughly 33,000 sequences, “E-score (-0.5 to 0.5)” has its median near -0.0059; the highest 2% begin near 0.26. This is one part of the list.
# Biological target: T1, Cin5 (UniProt P40917)
# T1 sequence: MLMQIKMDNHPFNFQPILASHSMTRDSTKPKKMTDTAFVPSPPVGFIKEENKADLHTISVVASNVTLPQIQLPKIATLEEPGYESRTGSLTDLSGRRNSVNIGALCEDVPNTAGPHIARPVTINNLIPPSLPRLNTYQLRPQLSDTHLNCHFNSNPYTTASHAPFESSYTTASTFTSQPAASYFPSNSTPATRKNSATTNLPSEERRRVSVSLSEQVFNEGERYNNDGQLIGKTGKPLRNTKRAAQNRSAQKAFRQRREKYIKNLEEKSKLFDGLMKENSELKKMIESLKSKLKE
# Experiment: PBM E-score (8-mer binding enrichment) (E-score (-0.5 to 0.5)); higher = stronger / more preferred TF binding
# Details: protein concentration: 100 nM; construct: GST-full length
# How it was run: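 Masliner-normalised scans of fluorescent anti-GST signal were the basis for scoring. That signal came from GST-tagged yeast transcription factors applied at about 100-200 nM to double-stranded universal all-10-mer Agilent arrays on fresh or once-stripped slides. Each ungapped eight-base word, pooled with its reverse complement, received an E-score from the Universal PBM Analysis Suite.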
row,Sequence,PBM E-score
1,GCTCCCCA,-0.265
2,CAACATGG,0.0788
3,ATGGCACG,-0.0722
4,ACCCTGCA,0.0478
5,ATAGATTC,0.0139
6,AACGATTA,0.141
7,ATCGGCGA,-0.164
8,ATACGTAT,0.247
9,CTGTAGCC,-0.21
10,ATTATGTC,0.27
11,GGGCAGGA,-0.00266
12,AAGCTTCC,-0.208
13,TGTAGCAA,0.0167
14,GCTCACCA,-0.0057
15,AATTACCA,0.187
16,CGCTTACA,0.315
17,GCCCATAA,-0.171
18,GAATCGAC,0.146
19,CTAACCTA,0.101
20,GAGACTGA,-0.0461
21,CTAAGTAG,0.125
22,AGAATACC,0.207
23,AGTACCGG,-0.115
24,GACCGGGC,-0.222
25,CGAGACTC,-0.0407

row,Sequence,PBM E-score
1,GAGGTCGC,-0.0922
2,TAGTTTAA,0.0531
3,AGTGGCCA,-0.0707
4,CATGCATG,0.0529
5,AACTCATT,-0.0089
6,ACCGCCGT,-0.00785
7,GCGTAGCA,0.0183
8,TAACCCTA,0.0924
9,CCGTTCCC,-0.0654
10,GAGCAGCA,-0.0583
11,ACAGCAAT,0.2
12,ATACGATC,0.16
13,GATCTGCC,0.0369
14,AAAGAATC,0.0204
15,CGCTACTC,-0.0371
16,ACTTCGAT,0.2
17,AAGGGGTG,-0.196
18,GCCTGCAA,-0.0798
19,AGTGTAGC,-0.0211
20,AGAGCTAG,-0.0596
21,CTAGAGGA,-0.279
22,GTAGTCAC,-0.185
23,GAAAAGTA,0.203
24,AATGTGCA,0.0522
25,AAGTTTCC,0.0769

row,Sequence,PBM E-score
1,TTGCGAAA,0.0737
2,GGAGTGCA,-0.0092
3,AAGCAAGC,0.0852
4,AGTGAGCG,-0.0798
5,GTAAATAC,-0.014
6,GAATGAGA,0.115
7,AGCATGGG,-0.192
8,AGAAATAC,0.0692
9,AGGATACG,-0.255
10,AACAAATT,0.274
11,CTTTCTTC,0.0293
12,CGATGTAG,-0.0299
13,CTAACGGA,0.158
14,GGAACATA,0.0465
15,AGTATTTA,0.0905
16,AGCTAGCT,0.128
17,GAGGAGGC,-0.199
18,AACACGGT,0.0055
19,CTGAAACA,-0.0676
20,ATGGTAGA,0.0341
21,CTTCAAAC,-0.00221
22,AGCTAGTA,0.147
23,GCGATGAA,0.0131
24,CCTGTTTA,0.0718
25,CACGTGGC,-0.317

# Looked up above:
# Entry for CTTCAAAC under PBM E-score: -0.00221
# Entry for GCGATGAA under PBM E-score: 0.0131

# The list goes on.

row,Sequence,PBM E-score
1,CGAGTAAG,0.24
2,GGCCCACA,-0.149
3,GGACCACC,-0.00836
4,CTTAAACC,-0.192
5,GACAATCA,0.0666
6,ATCCGTAC,0.0842
7,ACATGCAA,0.0885
8,ACAAGTGG,-0.044
9,CGATGAAC,-0.0667
10,CCTCGCGA,-0.00083
11,AGGCGGTC,-0.211
12,GTTACTCA,0.0831
13,CTTGCGCA,0.103
14,CCGACGGC,-0.201
15,CGTGATGC,0.0885
16,CGGGATGC,-0.113
17,GCGCATTA,0.147
18,AGATCTTA,0.00186
19,CTTTGCGC,0.123
20,CATTTCGC,0.111
21,ATCAAGCG,2e-05
22,AAAATGAA,0.124
23,CGACGGAC,0.0756
24,GATGTGTA,0.0907
25,CCATTGGA,-0.045

# Two neighbouring entries already listed, for reference:
row,Sequence,PBM E-score
18,AGATCTTA,0.00186
19,CTTTGCGC,0.123

# Remaining list, next part:

row,Sequence,PBM E-score
1,ACATGCGT,-0.01
2,ACAATGTG,0.0255
3,GTTTGAAA,0.172
4,CGCTTACC,0.15
5,GCCACATA,0.064
6,AAATGCGG,0.0916
7,CACCACCA,-0.0807
8,CCTTAACG,-0.0146
9,CGAGGAAG,-0.188
10,GAAGGATC,-0.086
11,ACCACGTA,-0.11
12,AGTGCGTA,-0.0422
13,ACTTCTCA,0.0227
14,GACAGTGC,-0.0152
15,CGTGAGCA,-0.18
16,CAATACCG,-0.0361
17,GTTTGGAA,-0.0016
18,CGCTTCCA,-0.0495
19,ATTTTACC,0.237
20,CGCGACAC,0.0363
21,GGACAGAC,-0.192
22,ATAGGCGG,0.156
23,CCTTTCAG,-0.18
24,CAAGTTAC,0.104
25,GGAGCGCA,-0.283

row,Sequence,PBM E-score
1,CCTTATGA,0.0855
2,TCAGACCA,0.0117
3,GAACTAAA,0.172
4,AGCTTGAA,-0.00033
5,ATCATCTG,0.211
6,AAGATTTC,0.195
7,ACCATTTG,0.0298
8,AACTATAT,0.294
9,AGTAGCTG,0.00262
10,CGTGCTAG,-0.194
11,GAGGCGTA,0.101
12,CAGTCCCG,-0.242
13,CGTGTCAA,-0.293
14,GCGATTAA,0.209
15,CAAAAAGA,0.122
16,CGTTAGGC,-0.249
17,CTACGACA,0.0366
18,CCCGCCAG,-0.0957
19,ACCCAGAG,0.103
20,CTCGGAGC,-0.0107
21,AACCTACT,0.172
22,CATTTCCG,0.242
23,ACCCCACA,0.144
24,AAGGGTGC,-0.202
25,TAGTCTCA,-0.112

# Given bar-delimited: part of the list above
row | Sequence | PBM E-score
14 | AAAGAATC | 0.0204
15 | CGCTACTC | -0.0371
16 | ACTTCGAT | 0.2

# More records follow:

row,Sequence,PBM E-score
1,ATTACCGC,0.115
2,GTCACTAA,0.174
3,GCTTCCCC,-0.277
4,ATCAACCC,0.212
5,AGGCGCGA,0.0728
6,TCAAGGGA,-0.199
7,AGCTCCAA,0.103
8,CCTGGCAA,-0.153
9,GGCCTCGA,-0.148
10,CACCGACC,-0.0953
11,CAAGCAAG,-0.103
12,AATGTTAA,0.0654
13,AGACCGCA,-0.0965
14,ACTGCGAT,0.0329
15,GGAGATCC,-0.217
16,AATGTCTA,0.0318
17,TTGCAAAA,0.119
18,CTAAGTTC,-0.176
19,AACATATA,0.183
20,AGGGCTGG,-0.189
21,CGGGGGGA,-0.452
22,GACCCGTC,-0.273
